Assay results: PMC5519978
Construct, isoform or probe ends are uncertain for at least one entry.

Chains of the proteins cited; added tags and fusions are not shown. Chains listed by the source or under a name are the forms on record and can include a tag or linker.
hBRM-B AT-BRD basic patch mutant K1432D,K1433N,K1442A,del1382-1399 (human), one chain, as listed by the source K1432D K1433N K1442A: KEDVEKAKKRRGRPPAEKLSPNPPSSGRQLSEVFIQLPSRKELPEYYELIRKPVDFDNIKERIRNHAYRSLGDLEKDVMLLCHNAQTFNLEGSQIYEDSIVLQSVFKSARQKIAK

System: hBRM-B AT-BRD basic patch mutant K1432D,K1433N,K1442A,del1382-1399 (human)
Assay: NMR titration
Settings: column assigned from text; FA and NMR: 50 mM K phosphate pH 7.0, 50 mM KCl, 0.5 mM EDTA, 1 mM DTT (NMR +10% D2O), 20 C (BRG1 NMR 25 C); recombinant protein; residues 1358-1490

Row | Sequence | Kd [µM]
1 | CGTAGACAGCT (double strand) [DNAII] | 100
2 | CTCAATTGGT (double strand) [DNAI] | 100
